Measurements published in US6451802B1, “S-oxide lipid lowering compounds” (Janssen Pharmaceutica N.V., priority 1998, dated 2002).

Test: Plasma levels in a clinical trial on human volunteers
Type: in vivo
Settings: single 200 mg dose of compound A; for share of the total pharmacological activity, compounds 1, 2 and 3 together: one value for the three compounds combined
From the text: Plasma levels of compounds 1, 2 and 3 and of compound A have been measured in a clinical trial on human volunteers.

| Structure (SMILES) | share of the total pharmacological activity (taking into account the pharmacological activity of each compound) | share of the total pharmacological activity, compounds 1, 2 and 3 together |
| --- | --- | --- |
| CC[C@@H](C)n1ncn(-c2ccc(N3CCN(c4ccc(OC[C@@H]5CO[C@@](CSc6nncn6C)(c6ccc(Cl)cc6)O5)cc4)CC3)cc2)c1=O [compound A, (−)-[2S-[2α,4α(S*)]]-4-[4-[4-[4-[[-2-(4-chlorophenyl)-2-[[(4-methyl-4H-1,2,4-triazol-3-yl)thio]methyl]-1,3-dioxolan-4-yl]methoxy]phenyl]-1-piperazinyl]phenyl]-2,4-dihydro-2-(1-methylpropyl)-3H-1,2,4-triazol-3-one, reference compound] | 28.6% | – |
| CCC(C)n1ncn(-c2ccc(N3CCN(c4ccc(OC[C@@H]5CO[C@@](CS(=O)(=O)c6nncn6C)(c6ccc(Cl)cc6)O5)cc4)CC3)cc2)c1=O (relative stereo) [Compound 1, [2S-[2α,4α(S*)]]-4-[4-[4-[4-[[2-(4-chloropheny)-2-[[(4-methyl-4H-1,2,4-triazol-3-yl)sulfonyl]methyl]-1,3-dioxlan-4-yl]methoxy]phenyl]-1-piperazinyl]phenyl]-2,4-dihydro-2-(1-methylpropyl)-3H-1,2,4-triazol-3-one] | – | 71.4% |
| CCC(C)n1ncn(-c2ccc(N3CCN(c4ccc(OCC5COC(C[S+]([O-])c6nncn6C)(c6ccc(Cl)cc6)O5)cc4)CC3)cc2)c1=O (single isomer, unassigned) [Compound 3, [2S-[2α(B),4α(S*)]]-4-[4-[4-[4-[[2-(4-chlorophenyl)-2-[[(4-methyl-4H-1,2,4-traizol-3yl]sulfinyl]methyl]-1,3-dioxolan-4-yl]methoxy]phenyl]-1-piperazinyl]Phenyl-2,4-dihydro-2-(1-methylpropyl)-3H-1,2,4-traizol-3-one] | – | 71.4% |
| CCC(C)n1ncn(-c2ccc(N3CCN(c4ccc(OCC5COC(C[S+]([O-])c6nncn6C)(c6ccc(Cl)cc6)O5)cc4)CC3)cc2)c1=O (single isomer, unassigned) [Compound 2] | – | 71.4% |
